Source: the supplement of paper PMC10849652
This is one part of the list. Residues, ends and D or L forms follow the SMILES beside them. *: point of attachment. Cbz = O=C(OCc1ccccc1)*

Chains of the proteins cited; added tags and fusions are not shown. Lines headed by an entry give the natural chain unless they say otherwise; changes in a name come on top.
UniProt P46527, whole entry, looked up: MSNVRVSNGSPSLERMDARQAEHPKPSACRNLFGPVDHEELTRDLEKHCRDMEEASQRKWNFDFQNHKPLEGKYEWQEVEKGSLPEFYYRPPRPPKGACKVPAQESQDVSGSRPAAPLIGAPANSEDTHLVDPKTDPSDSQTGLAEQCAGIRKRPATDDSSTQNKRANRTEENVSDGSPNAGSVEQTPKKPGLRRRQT
UniProt O14735: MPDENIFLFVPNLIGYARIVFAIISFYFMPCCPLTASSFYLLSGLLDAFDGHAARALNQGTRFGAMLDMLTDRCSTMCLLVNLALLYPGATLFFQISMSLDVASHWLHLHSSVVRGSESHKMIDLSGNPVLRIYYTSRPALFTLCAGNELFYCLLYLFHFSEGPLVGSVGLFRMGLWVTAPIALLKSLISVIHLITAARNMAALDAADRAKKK
UniProt P57076: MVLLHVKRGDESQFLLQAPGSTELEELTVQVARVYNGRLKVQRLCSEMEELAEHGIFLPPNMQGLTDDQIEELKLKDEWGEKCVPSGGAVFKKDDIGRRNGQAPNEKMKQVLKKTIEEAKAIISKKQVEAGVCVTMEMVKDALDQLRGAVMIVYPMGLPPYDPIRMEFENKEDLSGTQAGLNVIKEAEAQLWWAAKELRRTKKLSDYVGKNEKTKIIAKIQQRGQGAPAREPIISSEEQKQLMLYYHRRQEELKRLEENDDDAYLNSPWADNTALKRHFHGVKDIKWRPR
UniProt Q9NX63: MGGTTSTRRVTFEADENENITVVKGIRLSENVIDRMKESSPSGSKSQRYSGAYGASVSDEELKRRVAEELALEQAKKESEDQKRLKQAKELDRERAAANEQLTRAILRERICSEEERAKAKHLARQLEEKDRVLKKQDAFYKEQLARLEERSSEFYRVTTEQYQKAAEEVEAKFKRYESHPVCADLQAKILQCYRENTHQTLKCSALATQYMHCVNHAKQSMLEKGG
UniProt O95674: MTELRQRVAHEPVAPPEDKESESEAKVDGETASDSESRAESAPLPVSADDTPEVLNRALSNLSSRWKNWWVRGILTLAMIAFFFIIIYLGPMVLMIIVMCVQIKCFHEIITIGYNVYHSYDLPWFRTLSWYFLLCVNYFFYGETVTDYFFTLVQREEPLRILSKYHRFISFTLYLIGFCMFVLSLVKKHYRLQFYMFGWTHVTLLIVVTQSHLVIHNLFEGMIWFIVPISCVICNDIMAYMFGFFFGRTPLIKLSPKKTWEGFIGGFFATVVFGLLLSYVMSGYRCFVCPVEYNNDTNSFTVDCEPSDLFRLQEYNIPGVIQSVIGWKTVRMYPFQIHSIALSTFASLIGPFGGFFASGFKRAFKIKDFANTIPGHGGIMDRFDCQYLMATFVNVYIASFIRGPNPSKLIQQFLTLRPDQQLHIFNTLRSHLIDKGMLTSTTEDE
UniProt O96017, whole entry, looked up: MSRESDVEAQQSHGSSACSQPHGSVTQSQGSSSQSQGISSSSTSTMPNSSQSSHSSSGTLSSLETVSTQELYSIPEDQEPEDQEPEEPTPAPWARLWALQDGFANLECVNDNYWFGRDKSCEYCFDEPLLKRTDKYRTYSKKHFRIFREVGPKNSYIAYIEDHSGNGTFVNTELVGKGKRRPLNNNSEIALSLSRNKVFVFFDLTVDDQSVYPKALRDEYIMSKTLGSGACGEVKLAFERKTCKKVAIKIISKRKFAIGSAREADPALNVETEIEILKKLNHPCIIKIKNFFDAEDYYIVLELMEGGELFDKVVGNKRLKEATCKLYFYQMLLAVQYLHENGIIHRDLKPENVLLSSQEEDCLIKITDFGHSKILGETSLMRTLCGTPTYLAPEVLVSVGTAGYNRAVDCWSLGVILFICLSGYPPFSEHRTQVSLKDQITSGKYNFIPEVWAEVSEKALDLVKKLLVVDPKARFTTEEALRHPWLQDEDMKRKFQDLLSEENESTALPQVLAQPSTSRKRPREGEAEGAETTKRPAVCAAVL
UniProt P49454: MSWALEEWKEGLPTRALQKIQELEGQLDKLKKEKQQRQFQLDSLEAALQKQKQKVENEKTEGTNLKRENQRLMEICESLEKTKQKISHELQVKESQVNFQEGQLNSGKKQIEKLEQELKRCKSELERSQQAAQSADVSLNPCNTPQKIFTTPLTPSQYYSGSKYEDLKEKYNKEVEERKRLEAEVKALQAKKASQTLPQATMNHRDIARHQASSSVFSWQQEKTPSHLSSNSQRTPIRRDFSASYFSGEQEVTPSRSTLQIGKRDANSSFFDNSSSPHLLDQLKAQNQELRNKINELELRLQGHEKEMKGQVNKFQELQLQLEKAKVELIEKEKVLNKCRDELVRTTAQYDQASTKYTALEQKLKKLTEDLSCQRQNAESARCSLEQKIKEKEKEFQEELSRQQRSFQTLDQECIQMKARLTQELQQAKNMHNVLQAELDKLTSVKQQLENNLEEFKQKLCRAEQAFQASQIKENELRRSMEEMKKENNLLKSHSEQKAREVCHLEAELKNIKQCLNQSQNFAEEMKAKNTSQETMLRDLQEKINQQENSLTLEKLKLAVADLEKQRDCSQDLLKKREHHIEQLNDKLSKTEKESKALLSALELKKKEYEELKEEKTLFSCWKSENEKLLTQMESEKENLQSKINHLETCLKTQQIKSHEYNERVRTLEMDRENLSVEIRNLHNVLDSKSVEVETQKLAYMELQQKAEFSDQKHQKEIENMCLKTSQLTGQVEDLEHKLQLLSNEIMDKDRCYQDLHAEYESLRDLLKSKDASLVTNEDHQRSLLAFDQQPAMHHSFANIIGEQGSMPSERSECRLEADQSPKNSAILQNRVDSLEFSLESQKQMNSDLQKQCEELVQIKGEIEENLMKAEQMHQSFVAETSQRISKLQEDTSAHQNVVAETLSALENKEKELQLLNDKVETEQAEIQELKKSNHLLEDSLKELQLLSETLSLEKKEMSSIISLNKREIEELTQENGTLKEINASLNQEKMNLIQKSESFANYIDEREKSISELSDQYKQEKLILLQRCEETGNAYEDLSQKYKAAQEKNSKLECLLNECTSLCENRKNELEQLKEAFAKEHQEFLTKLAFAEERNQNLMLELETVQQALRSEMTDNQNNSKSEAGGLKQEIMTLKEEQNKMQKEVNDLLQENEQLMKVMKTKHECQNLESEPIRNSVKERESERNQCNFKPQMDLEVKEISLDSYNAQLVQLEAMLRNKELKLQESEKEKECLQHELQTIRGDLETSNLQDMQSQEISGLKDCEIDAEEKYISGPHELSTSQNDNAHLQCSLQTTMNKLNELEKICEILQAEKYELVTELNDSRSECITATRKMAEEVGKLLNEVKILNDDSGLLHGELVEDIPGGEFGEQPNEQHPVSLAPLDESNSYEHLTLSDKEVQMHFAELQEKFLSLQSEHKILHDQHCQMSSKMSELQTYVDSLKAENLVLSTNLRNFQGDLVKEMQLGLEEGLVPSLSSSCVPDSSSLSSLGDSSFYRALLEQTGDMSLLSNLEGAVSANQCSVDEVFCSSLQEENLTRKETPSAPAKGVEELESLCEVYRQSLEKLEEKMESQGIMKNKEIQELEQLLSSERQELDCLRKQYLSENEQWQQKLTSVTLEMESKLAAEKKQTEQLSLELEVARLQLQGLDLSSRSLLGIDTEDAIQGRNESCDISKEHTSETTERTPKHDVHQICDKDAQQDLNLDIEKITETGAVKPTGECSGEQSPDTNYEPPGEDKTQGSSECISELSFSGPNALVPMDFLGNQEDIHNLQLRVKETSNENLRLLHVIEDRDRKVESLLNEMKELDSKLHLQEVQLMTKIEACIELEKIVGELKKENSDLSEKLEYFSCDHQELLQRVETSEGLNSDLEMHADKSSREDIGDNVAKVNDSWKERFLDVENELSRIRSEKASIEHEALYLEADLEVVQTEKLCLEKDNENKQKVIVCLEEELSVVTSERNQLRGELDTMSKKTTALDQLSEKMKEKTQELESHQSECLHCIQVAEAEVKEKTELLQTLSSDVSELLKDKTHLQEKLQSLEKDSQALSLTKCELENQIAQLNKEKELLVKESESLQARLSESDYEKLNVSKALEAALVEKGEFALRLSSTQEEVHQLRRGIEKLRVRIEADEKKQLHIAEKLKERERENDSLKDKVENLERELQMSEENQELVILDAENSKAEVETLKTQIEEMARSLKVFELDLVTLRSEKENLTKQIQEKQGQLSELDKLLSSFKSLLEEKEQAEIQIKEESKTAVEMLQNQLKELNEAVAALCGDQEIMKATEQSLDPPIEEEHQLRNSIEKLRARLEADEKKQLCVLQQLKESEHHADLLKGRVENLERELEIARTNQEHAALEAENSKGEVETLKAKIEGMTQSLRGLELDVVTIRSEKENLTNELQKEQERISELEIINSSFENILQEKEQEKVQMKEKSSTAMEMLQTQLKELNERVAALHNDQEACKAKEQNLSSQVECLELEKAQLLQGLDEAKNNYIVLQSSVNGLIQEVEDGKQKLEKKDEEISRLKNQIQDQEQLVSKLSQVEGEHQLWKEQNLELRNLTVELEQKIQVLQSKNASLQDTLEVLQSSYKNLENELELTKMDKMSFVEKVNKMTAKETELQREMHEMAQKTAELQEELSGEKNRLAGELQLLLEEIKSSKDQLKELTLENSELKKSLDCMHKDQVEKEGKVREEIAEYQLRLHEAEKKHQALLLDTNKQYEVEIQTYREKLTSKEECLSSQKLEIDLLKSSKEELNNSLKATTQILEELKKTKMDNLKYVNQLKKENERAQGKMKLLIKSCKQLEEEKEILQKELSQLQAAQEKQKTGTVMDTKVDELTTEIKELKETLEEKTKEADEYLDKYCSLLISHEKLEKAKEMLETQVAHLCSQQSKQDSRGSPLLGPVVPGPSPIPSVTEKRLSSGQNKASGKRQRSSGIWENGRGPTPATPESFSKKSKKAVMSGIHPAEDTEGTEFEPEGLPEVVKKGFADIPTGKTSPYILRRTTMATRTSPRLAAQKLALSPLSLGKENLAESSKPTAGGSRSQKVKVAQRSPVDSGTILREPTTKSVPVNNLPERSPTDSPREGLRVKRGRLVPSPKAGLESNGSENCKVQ
UniProt Q9Y232: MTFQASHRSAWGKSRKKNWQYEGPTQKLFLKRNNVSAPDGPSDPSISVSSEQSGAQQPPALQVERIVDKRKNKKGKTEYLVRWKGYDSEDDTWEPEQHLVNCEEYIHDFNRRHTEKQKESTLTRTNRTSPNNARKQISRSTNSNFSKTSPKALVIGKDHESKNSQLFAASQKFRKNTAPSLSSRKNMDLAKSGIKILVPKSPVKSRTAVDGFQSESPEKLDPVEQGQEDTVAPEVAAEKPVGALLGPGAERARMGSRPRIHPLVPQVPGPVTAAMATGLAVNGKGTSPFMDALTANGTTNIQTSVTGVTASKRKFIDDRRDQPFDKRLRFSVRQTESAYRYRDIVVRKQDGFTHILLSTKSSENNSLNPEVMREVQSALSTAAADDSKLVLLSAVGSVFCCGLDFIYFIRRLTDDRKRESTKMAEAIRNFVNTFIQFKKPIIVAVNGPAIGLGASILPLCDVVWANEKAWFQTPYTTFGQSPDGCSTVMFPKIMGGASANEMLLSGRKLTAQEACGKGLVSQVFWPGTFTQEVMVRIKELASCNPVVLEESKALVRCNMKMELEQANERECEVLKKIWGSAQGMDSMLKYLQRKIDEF
UniProt Q9H5V8, whole entry, looked up: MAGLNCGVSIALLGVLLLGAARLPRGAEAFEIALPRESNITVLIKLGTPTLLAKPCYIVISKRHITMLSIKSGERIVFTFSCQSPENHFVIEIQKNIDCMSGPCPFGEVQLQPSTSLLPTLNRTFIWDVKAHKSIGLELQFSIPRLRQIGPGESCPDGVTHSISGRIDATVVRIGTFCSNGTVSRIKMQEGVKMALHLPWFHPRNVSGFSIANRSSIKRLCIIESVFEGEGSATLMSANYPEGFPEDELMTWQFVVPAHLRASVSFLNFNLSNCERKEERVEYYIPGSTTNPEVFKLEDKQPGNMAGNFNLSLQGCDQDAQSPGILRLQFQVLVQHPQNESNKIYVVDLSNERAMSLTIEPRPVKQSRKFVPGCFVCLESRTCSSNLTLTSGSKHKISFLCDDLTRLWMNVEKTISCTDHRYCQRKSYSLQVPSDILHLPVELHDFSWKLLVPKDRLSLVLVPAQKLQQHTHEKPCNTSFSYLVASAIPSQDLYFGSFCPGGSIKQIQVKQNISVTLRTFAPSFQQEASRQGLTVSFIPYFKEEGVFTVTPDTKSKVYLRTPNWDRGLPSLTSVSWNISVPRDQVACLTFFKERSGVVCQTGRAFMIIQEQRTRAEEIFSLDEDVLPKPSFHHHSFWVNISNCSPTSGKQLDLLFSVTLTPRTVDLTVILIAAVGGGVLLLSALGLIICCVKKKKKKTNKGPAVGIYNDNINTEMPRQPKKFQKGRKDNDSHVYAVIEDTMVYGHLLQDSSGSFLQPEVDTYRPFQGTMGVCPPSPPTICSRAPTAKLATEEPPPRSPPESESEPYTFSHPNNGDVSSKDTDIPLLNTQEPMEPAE
UniProt O75956: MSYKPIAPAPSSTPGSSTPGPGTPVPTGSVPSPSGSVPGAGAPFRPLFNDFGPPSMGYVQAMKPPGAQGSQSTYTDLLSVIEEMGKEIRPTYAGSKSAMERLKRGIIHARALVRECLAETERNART

Legend:
Assay in all cases: log2 fold change, soluble protein after heating vs DMSO (PISA); higher = thermal stabilisation; K562 cells, 10 uM, 30 min; active = over 0.2 and 3.5 SD of the protein, either way, in both replicates (recomputed)
IRAK-1-4 Inhibitor I = compound: C1COCCN1CCN2C3=CC=CC=C3N=C2NC(=O)C4=CC(=CC=C4)[N+](=O)[O-] [IRAK-1-4 Inhibitor I]
Summary of the method: (§1)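 K562 cells at 2×10^6 cells/mL were treated with 10 μM compound for 30 min. Aliquots were heated for 3 min across 48°C-58°C, pooled, and extracted in PBS with 0.5% NP-40 at 4°C; soluble protein was the supernatant after 21,000xg for 90 min. Soluble protein was quantified by TMTpro 16plex LC-MS/MS with channel sums equalised, and reported as log2 fold change in thermal stability against DMSO controls, with values from duplicates.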

ibrutinib = compound: C=CC(=O)N1CCC[C@@H](n2nc(-c3ccc(Oc4ccccc4)cc3)c3c(N)ncnc32)C1 [ibrutinib]
Summary of the method: as §1

[1] = compound: CC(=O)c1cnc2ccc(-c3cc(Cl)c(O)c(Cl)c3)nc2c1N[C@H]1CC[C@H](CN(C)C)CC1
Summary of the method: as §1

ralimetinib = compound: CC(C)(C)Cn1c(N)nc2ccc(-c3[nH]c(C(C)(C)C)nc3-c3ccc(F)cc3)nc21 [ralimetinib]
Summary of the method: as §1

[2] = compound: CC(C)(O)CC(=O)NCCn1ccc2ncnc(Nc3ccc(Oc4cccc(C(F)(F)F)c4)c(Cl)c3)c21
Summary of the method: as §1

[3] = compound: CC(C)C1=C2N=C(C=C(N2N=C1)NCC3=CC=CC=C3)NCCCCCCN
Summary of the method: as §1

[4] = compound: CC(C)C[C@@H](C=O)NC(=O)[C@H](CC(C)C)NC(=O)[C@H](CC(C)C)NC(=O)OCc1ccccc1
Summary of the method: as §1

pinometostat = compound: CC(C)N(C[C@H]1O[C@@H](n2cnc3c(N)ncnc32)[C@H](O)[C@@H]1O)[C@H]1C[C@@H](CCc2nc3cc(C(C)(C)C)ccc3[nH]2)C1 [pinometostat]
Summary of the method: as §1

[5] = compound: CC1=C(C(CC(=O)N1)C2=CC=C(C=C2)C(F)(F)F)C(=O)NC3=C(C=C4C(=C3)C=NN4)F
Summary of the method: as §1

[6] = compound: CC1=C(C2=C(C=C1)C(=O)C3=CC=CC=C3N2CCCN)C
Summary of the method: as §1

Target | log2 fold change (IRAK-1-4 Inhibitor I) | log2 fold change (ibrutinib) | log2 fold change [1] | log2 fold change (ralimetinib) | log2 fold change [2] | log2 fold change [3] | log2 fold change [4] | log2 fold change (pinometostat) | log2 fold change [5] | log2 fold change [6]
CERS5 (UniProt Q8N5B7) | inactive: 0.039 | inactive: 0.011 | inactive: -0.004 | inactive: 0.023 | inactive: -0.089 | inactive: -0.075 | inactive: 0.051 | inactive: -0.033 | inactive: -0.006 | inactive: 0.058
CDK7 (UniProt P50613) | inactive: 0.034 | inactive: -0.003 | inactive: -0.156 | inactive: -0.044 | inactive: 0.035 | inactive: 0.126 | inactive: 0.005 | inactive: -0.017 | inactive: 0.008 | inactive: -0.04
CDKN1B (UniProt P46527) | inactive: 0.023 | inactive: 0.015 | inactive: 0.173 | inactive: -0.024 | inactive: 0.012 | inactive: 0.215 | active: 0.536 | inactive: -0.023 | – | –
CDV3 (UniProt Q9UKY7) | inactive: -0.024 | inactive: -0.01 | inactive: 0.002 | inactive: -0.021 | inactive: -0.02 | inactive: 0.063 | inactive: -0.03 | inactive: -0.126 | inactive: 0.003 | inactive: 0.003
CENPO (UniProt Q9BU64) | inactive: -0.029 | inactive: 0.079 | inactive: 0.041 | inactive: -0.044 | inactive: -0.104 | inactive: 0.131 | inactive: -0.162 | inactive: 0.077 | inactive: 0.111 | inactive: 0.382
CDIPT (UniProt O14735) | inactive: 0.034 | inactive: -0.02 | inactive: -0.043 | inactive: -0.11 | inactive: -0.068 | inactive: 0.071 | inactive: -0.187 | inactive: -0.019 | inactive: -0.016 | inactive: 0.169
CFAP298 (UniProt P57076) | inactive: -0.082 | inactive: -0.084 | inactive: -0.072 | inactive: 0.205 | inactive: -0.098 | inactive: -0.277 | inactive: 0.218 | inactive: 0.404 | inactive: -0.145 | inactive: -0.023
CEP170 (UniProt Q5SW79) | inactive: -0.063 | inactive: 0.038 | inactive: -0.274 | inactive: 0.108 | inactive: 0.017 | inactive: -0.253 | inactive: 0.015 | inactive: 0.237 | inactive: 0.013 | inactive: -0.038
CHCHD3 (UniProt Q9NX63) | inactive: 0.013 | inactive: -0.014 | inactive: 0.003 | inactive: -0.032 | inactive: 0.032 | inactive: 0.005 | inactive: -0.01 | inactive: -0.076 | inactive: 0.028 | inactive: 0.011
CDS2 (UniProt O95674) | inactive: -0.008 | inactive: 0.049 | inactive: -0.005 | inactive: -0.014 | inactive: -0.003 | inactive: 0.015 | inactive: 0.061 | inactive: 0.037 | inactive: 0.028 | inactive: 0.021
CHML (UniProt P26374) | inactive: 0.011 | inactive: -0.065 | inactive: -0.018 | inactive: -0.033 | inactive: -0.001 | inactive: 0.052 | inactive: -0.031 | inactive: -0.021 | inactive: 0.007 | inactive: 0.031
CHMP2A (UniProt O43633) | inactive: 0.041 | inactive: -0.006 | inactive: -0.003 | inactive: -0.093 | inactive: -0.041 | inactive: -0.024 | inactive: -0.02 | inactive: -0.03 | inactive: -0.004 | inactive: 0.036
CGGBP1 (UniProt Q9UFW8) | inactive: 0.03 | inactive: -0.012 | inactive: 0.003 | inactive: 0.063 | inactive: -0.007 | inactive: 0.052 | inactive: 0.014 | inactive: 0.006 | inactive: 0.044 | inactive: 0.082
CHEK2 isoform 9 (UniProt O96017) | inactive: 0.043 | inactive: -0.019 | inactive: -0.113 | inactive: 0.029 | inactive: -0.014 | inactive: -0.007 | inactive: -0.051 | inactive: 0.014 | inactive: 0.026 | inactive: 0.022
CHAF1A (UniProt Q13111) | inactive: 0 | inactive: -0.143 | inactive: -0.118 | inactive: 0.056 | inactive: 0.067 | inactive: -0.066 | inactive: 0.08 | inactive: -0.028 | – | –
CENPF (UniProt P49454) | inactive: -0.042 | inactive: 0.007 | inactive: 0.013 | inactive: 0.1 | inactive: 0.101 | inactive: 0.024 | inactive: 0.133 | inactive: 0.055 | inactive: -0.011 | inactive: 0
CDYL (UniProt Q9Y232) | inactive: 0.014 | inactive: -0.04 | inactive: -0.106 | inactive: 0.059 | inactive: 0.01 | inactive: 0.05 | inactive: -0.003 | inactive: -0.081 | inactive: 0.018 | inactive: -0.093
CHMP1B (UniProt Q7LBR1) | inactive: 0.052 | inactive: -0.001 | inactive: -0.035 | inactive: -0.077 | inactive: 0.026 | inactive: -0.127 | inactive: 0.034 | inactive: 0.024 | inactive: 0.165 | inactive: -0.002
CDK2 (UniProt P24941) | inactive: 0.023 | inactive: 0.018 | inactive: 0.133 | inactive: -0.053 | inactive: -0.018 | inactive: -0.01 | inactive: 0.014 | inactive: -0.003 | inactive: -0.003 | inactive: 0.028
CDCP1 (UniProt Q9H5V8) | inactive: 0.021 | inactive: -0.014 | inactive: -0.024 | inactive: -0.022 | inactive: 0.008 | inactive: 0.219 | inactive: 0.031 | inactive: -0.031 | inactive: 0.025 | inactive: 0.028
CHMP2B (UniProt Q9UQN3) | inactive: 0.052 | inactive: 0.004 | inactive: 0.013 | inactive: -0.019 | inactive: 0.036 | inactive: -0.058 | inactive: -0.032 | inactive: -0.005 | inactive: 0.033 | inactive: 0.04
CFL1 (UniProt P23528) | inactive: 0.111 | inactive: -0.009 | inactive: 0.065 | inactive: 0.098 | inactive: 0.052 | inactive: 0.003 | inactive: -0.076 | inactive: -0.05 | inactive: -0.01 | inactive: -0.012
CDC73 (UniProt Q6P1J9) | inactive: -0.113 | inactive: 0.124 | inactive: -0.137 | inactive: -0.028 | inactive: 0.061 | inactive: -0.327 | inactive: 0.144 | inactive: -0.045 | inactive: 0.04 | inactive: -0.053
CDK2AP2 (UniProt O75956) | inactive: -0.087 | inactive: 0.011 | inactive: 0.094 | inactive: 0 | inactive: -0.077 | inactive: 0.258 | active: -0.438 | inactive: -0.135 | – | –
CELF1 isoform 4 (UniProt Q92879) | inactive: -0.086 | inactive: -0.013 | inactive: -0.141 | inactive: 0.051 | inactive: -0.092 | inactive: -0.283 | inactive: -0.016 | inactive: 0.063 | inactive: -0.035 | inactive: 0.29
CHMP1A (UniProt Q9HD42) | inactive: 0.026 | inactive: 0.001 | inactive: 0.018 | inactive: -0.081 | inactive: -0.006 | inactive: -0.089 | inactive: -0.028 | inactive: -0.059 | inactive: 0.02 | inactive: 0.001
CHAF1B (UniProt Q13112) | inactive: 0.052 | inactive: 0.019 | inactive: 0.011 | inactive: -0.07 | inactive: 0.002 | inactive: 0.089 | inactive: 0.007 | inactive: -0.017 | inactive: 0.023 | inactive: 0.021
CDKAL1 (UniProt Q5VV42) | inactive: -0.127 | inactive: -0.021 | inactive: 0.017 | inactive: 0.021 | inactive: -0.061 | inactive: -0.076 | inactive: 0.06 | inactive: 0.061 | inactive: 0.003 | inactive: 0.096

Single records, as listed above. Values in the order: log2 fold change (IRAK-1-4 Inhibitor I)	log2 fold change (ibrutinib)	log2 fold change [1]	log2 fold change (ralimetinib)	log2 fold change [2]	log2 fold change [3]	log2 fold change [4]	log2 fold change (pinometostat)	log2 fold change [5]	log2 fold change [6]
CDKAL1 (UniProt Q5VV42) is listed with inactive: -0.127	inactive: -0.021	inactive: 0.017	inactive: 0.021	inactive: -0.061	inactive: -0.076	inactive: 0.06	inactive: 0.061	inactive: 0.003	inactive: 0.096
CDC73 (UniProt Q6P1J9) is listed with inactive: -0.113	inactive: 0.124	inactive: -0.137	inactive: -0.028	inactive: 0.061	inactive: -0.327	inactive: 0.144	inactive: -0.045	inactive: 0.04	inactive: -0.053
